Reference: the supplement of paper PMC7661543
The effect of the compound repeats well; differences between the knockouts mostly do not.

Tested on: HCC-38
Test: relative cell number vs DMSO control (72 h) (% of DMSO); higher = less growth inhibition (more cells)
Experimental: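 QMAP-Seq: a pool of 5 breast cancer cell lines (ZR-75-1, SKBR3, HCC-38, MDA-MB-231, BT-20), each carrying 12 doxycycline-inducible Cas9 sgRNA perturbations (11 knockouts plus non-targeting sgNT), was treated with compounds for 72 h at four 10-fold doses (10 nM-10 uM or 1 nM-1 uM range). Barcodes were amplified and sequenced, and cell number was interpolated from 293T spike-in standard curves. The result is expressed as % of the median of DMSO wells. Two biological replicates.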

N#Cc1ccc(COC[C@H]2O[C@@H](n3c(NCc4ccc(Cl)c(Cl)c4)nc4c(N)ncnc43)[C@H](O)[C@@H]2O)cc1
Details | relative cell number
sgRNA knockout: sgATF3, 10 nM | 90.4
sgRNA knockout: sgATF3, 100 nM | 88.7
sgRNA knockout: sgATF3, 1000 nM | 98.8
sgRNA knockout: sgATF3, 10000 nM | 97.3
sgRNA knockout: sgATF4, 10 nM | 84.3
sgRNA knockout: sgATF4, 100 nM | 103
sgRNA knockout: sgATF4, 1000 nM | 95.4
sgRNA knockout: sgATF4, 10000 nM | 102
sgRNA knockout: sgATF6, 10 nM | 109.4
sgRNA knockout: sgATF6, 100 nM | 95
sgRNA knockout: sgATF6, 1000 nM | 119
sgRNA knockout: sgATF6, 10000 nM | 95.8
sgRNA knockout: sgATG7, 10 nM | 94.6
sgRNA knockout: sgATG7, 100 nM | 95.9
sgRNA knockout: sgATG7, 1000 nM | 100
sgRNA knockout: sgATG7, 10000 nM | 95.1
sgRNA knockout: sgERN1, 10 nM | 95.3
sgRNA knockout: sgERN1, 100 nM | 90.7
sgRNA knockout: sgERN1, 1000 nM | 107
sgRNA knockout: sgERN1, 10000 nM | 101
sgRNA knockout: sgHSF1, 10 nM | 113
sgRNA knockout: sgHSF1, 100 nM | 94.2
sgRNA knockout: sgHSF1, 1000 nM | 110.65
sgRNA knockout: sgHSF1, 10000 nM | 87.1
sgRNA knockout: sgHSF2, 10 nM | 96.1
sgRNA knockout: sgHSF2, 100 nM | 92.88
sgRNA knockout: sgHSF2, 1000 nM | 99.1
sgRNA knockout: sgHSF2, 10000 nM | 99.7
sgRNA knockout: sgKEAP1, 10 nM | 101
sgRNA knockout: sgKEAP1, 100 nM | 91.5
sgRNA knockout: sgKEAP1, 1000 nM | 116
sgRNA knockout: sgKEAP1, 10000 nM | 101
sgRNA knockout: sgNFE2L2, 10 nM | 81.1
sgRNA knockout: sgNFE2L2, 100 nM | 97.7
sgRNA knockout: sgNFE2L2, 1000 nM | 97.2
sgRNA knockout: sgNFE2L2, 10000 nM | 91.2
sgRNA knockout: sgSLC35F2, 10 nM | 89
sgRNA knockout: sgSLC35F2, 100 nM | 103
sgRNA knockout: sgSLC35F2, 1000 nM | 99.4
sgRNA knockout: sgSLC35F2, 10000 nM | 90.9
sgRNA knockout: sgXBP1, 10 nM | 82.1
sgRNA knockout: sgXBP1, 100 nM | 101
sgRNA knockout: sgXBP1, 1000 nM | 101
sgRNA knockout: sgXBP1, 10000 nM | 98.4

COCC[n+]1c2c(n(Cc3cnccn3)c1C)C(=O)c1ccccc1C2=O [YM155]
Details | relative cell number
sgRNA knockout: sgATF3, 1 nM | 58.2
sgRNA knockout: sgATF3, 10 nM | 24.92
sgRNA knockout: sgATF3, 100 nM | 3.57
sgRNA knockout: sgATF3, 1000 nM | 4.25
sgRNA knockout: sgATF4, 1 nM | 48.1
sgRNA knockout: sgATF4, 10 nM | 25.5
sgRNA knockout: sgATF4, 100 nM | 4.161
sgRNA knockout: sgATF4, 1000 nM | 4.82
sgRNA knockout: sgATF6, 1 nM | 57.48
sgRNA knockout: sgATF6, 10 nM | 22.6
sgRNA knockout: sgATF6, 100 nM | 3.07
sgRNA knockout: sgATF6, 1000 nM | 6.2
sgRNA knockout: sgATG7, 1 nM | 53.9
sgRNA knockout: sgATG7, 10 nM | 22.5
sgRNA knockout: sgATG7, 100 nM | 3.37
sgRNA knockout: sgATG7, 1000 nM | 4.45
sgRNA knockout: sgERN1, 1 nM | 58.1
sgRNA knockout: sgERN1, 10 nM | 25.7
sgRNA knockout: sgERN1, 100 nM | 4.06
sgRNA knockout: sgERN1, 1000 nM | 4.59
sgRNA knockout: sgHSF1, 1 nM | 73.1
sgRNA knockout: sgHSF1, 10 nM | 29.1
sgRNA knockout: sgHSF1, 100 nM | 4.53
sgRNA knockout: sgHSF1, 1000 nM | 5.55
sgRNA knockout: sgHSF2, 1 nM | 55.1
sgRNA knockout: sgHSF2, 10 nM | 25.5
sgRNA knockout: sgHSF2, 100 nM | 5.15
sgRNA knockout: sgHSF2, 1000 nM | 4.9
sgRNA knockout: sgKEAP1, 1 nM | 70
sgRNA knockout: sgKEAP1, 10 nM | 32.4
sgRNA knockout: sgKEAP1, 100 nM | 6.54
sgRNA knockout: sgKEAP1, 1000 nM | 5.47
sgRNA knockout: sgNFE2L2, 1 nM | 48.4
sgRNA knockout: sgNFE2L2, 10 nM | 20.6
sgRNA knockout: sgNFE2L2, 100 nM | 3.9
sgRNA knockout: sgNFE2L2, 1000 nM | 4.58
sgRNA knockout: sgSLC35F2, 1 nM | 96.8
sgRNA knockout: sgSLC35F2, 10 nM | 59
sgRNA knockout: sgSLC35F2, 100 nM | 16.2
sgRNA knockout: sgSLC35F2, 1000 nM | 5.18
sgRNA knockout: sgXBP1, 1 nM | 51.7
sgRNA knockout: sgXBP1, 10 nM | 21.5
sgRNA knockout: sgXBP1, 100 nM | 4.37
sgRNA knockout: sgXBP1, 1000 nM | 5.44

COc1ccc(-c2ccc3c(N4CCOCC4)nc(N4C[C@@H](C)O[C@@H](C)C4)nc3n2)cc1CO
Details | relative cell number
sgRNA knockout: sgATF3, 10 nM | 99.1
sgRNA knockout: sgATF3, 100 nM | 114
sgRNA knockout: sgATF3, 1000 nM | 89.6
sgRNA knockout: sgATF3, 10000 nM | 45.4
sgRNA knockout: sgATF4, 10 nM | 93.2
sgRNA knockout: sgATF4, 100 nM | 106
sgRNA knockout: sgATF4, 1000 nM | 98.4
sgRNA knockout: sgATF4, 10000 nM | 47
sgRNA knockout: sgATF6, 10 nM | 93.2
sgRNA knockout: sgATF6, 100 nM | 109.2
sgRNA knockout: sgATF6, 1000 nM | 93.2
sgRNA knockout: sgATF6, 10000 nM | 46.4
sgRNA knockout: sgATG7, 10 nM | 87.4
sgRNA knockout: sgATG7, 100 nM | 119
sgRNA knockout: sgATG7, 1000 nM | 97.4
sgRNA knockout: sgATG7, 10000 nM | 48.3
sgRNA knockout: sgERN1, 10 nM | 101
sgRNA knockout: sgERN1, 100 nM | 115
sgRNA knockout: sgERN1, 1000 nM | 86.9
sgRNA knockout: sgERN1, 10000 nM | 56.3
sgRNA knockout: sgHSF1, 10 nM | 89.7
sgRNA knockout: sgHSF1, 100 nM | 117
sgRNA knockout: sgHSF1, 1000 nM | 102
sgRNA knockout: sgHSF1, 10000 nM | 49
sgRNA knockout: sgHSF2, 10 nM | 98.9
sgRNA knockout: sgHSF2, 100 nM | 125
sgRNA knockout: sgHSF2, 1000 nM | 96.9
sgRNA knockout: sgHSF2, 10000 nM | 47.5
sgRNA knockout: sgKEAP1, 10 nM | 99.4
sgRNA knockout: sgKEAP1, 100 nM | 129
sgRNA knockout: sgKEAP1, 1000 nM | 92.3
sgRNA knockout: sgKEAP1, 10000 nM | 58
sgRNA knockout: sgNFE2L2, 10 nM | 89.8
sgRNA knockout: sgNFE2L2, 100 nM | 113
sgRNA knockout: sgNFE2L2, 1000 nM | 87.2
sgRNA knockout: sgNFE2L2, 10000 nM | 45.1
sgRNA knockout: sgSLC35F2, 10 nM | 89.2
sgRNA knockout: sgSLC35F2, 100 nM | 113
sgRNA knockout: sgSLC35F2, 1000 nM | 89.3
sgRNA knockout: sgSLC35F2, 10000 nM | 44.8
sgRNA knockout: sgXBP1, 10 nM | 96
sgRNA knockout: sgXBP1, 100 nM | 113
sgRNA knockout: sgXBP1, 1000 nM | 91.9
sgRNA knockout: sgXBP1, 10000 nM | 53.3

Cc1cnc(Nc2ccc(OCCN3CCCC3)cc2)nc1Nc1cccc(S(=O)(=O)NC(C)(C)C)c1
Details | relative cell number
sgRNA knockout: sgATF3, 10 nM | 92.4
sgRNA knockout: sgATF3, 100 nM | 98.8
sgRNA knockout: sgATF3, 1000 nM | 66
sgRNA knockout: sgATF3, 10000 nM | 14.3
sgRNA knockout: sgATF4, 10 nM | 96.5
sgRNA knockout: sgATF4, 100 nM | 99.8
sgRNA knockout: sgATF4, 1000 nM | 68
sgRNA knockout: sgATF4, 10000 nM | 14.7
sgRNA knockout: sgATF6, 10 nM | 95.4
sgRNA knockout: sgATF6, 100 nM | 110
sgRNA knockout: sgATF6, 1000 nM | 78
sgRNA knockout: sgATF6, 10000 nM | 13.8
sgRNA knockout: sgATG7, 10 nM | 96.9
sgRNA knockout: sgATG7, 100 nM | 108
sgRNA knockout: sgATG7, 1000 nM | 66.6
sgRNA knockout: sgATG7, 10000 nM | 14.63
sgRNA knockout: sgERN1, 10 nM | 97.8
sgRNA knockout: sgERN1, 100 nM | 107
sgRNA knockout: sgERN1, 1000 nM | 71.9
sgRNA knockout: sgERN1, 10000 nM | 9.54
sgRNA knockout: sgHSF1, 10 nM | 99
sgRNA knockout: sgHSF1, 100 nM | 93.4
sgRNA knockout: sgHSF1, 1000 nM | 69.4
sgRNA knockout: sgHSF1, 10000 nM | 15.5
sgRNA knockout: sgHSF2, 10 nM | 98.8
sgRNA knockout: sgHSF2, 100 nM | 109
sgRNA knockout: sgHSF2, 1000 nM | 74.3
sgRNA knockout: sgHSF2, 10000 nM | 14.9
sgRNA knockout: sgKEAP1, 10 nM | 92.3
sgRNA knockout: sgKEAP1, 100 nM | 91.8
sgRNA knockout: sgKEAP1, 1000 nM | 73.3
sgRNA knockout: sgKEAP1, 10000 nM | 18.4
sgRNA knockout: sgNFE2L2, 10 nM | 100
sgRNA knockout: sgNFE2L2, 100 nM | 102
sgRNA knockout: sgNFE2L2, 1000 nM | 62.9
sgRNA knockout: sgNFE2L2, 10000 nM | 13.5
sgRNA knockout: sgSLC35F2, 10 nM | 101
sgRNA knockout: sgSLC35F2, 100 nM | 102
sgRNA knockout: sgSLC35F2, 1000 nM | 69.6
sgRNA knockout: sgSLC35F2, 10000 nM | 15.1
sgRNA knockout: sgXBP1, 10 nM | 99
sgRNA knockout: sgXBP1, 100 nM | 102
sgRNA knockout: sgXBP1, 1000 nM | 68.9
sgRNA knockout: sgXBP1, 10000 nM | 12.9
